Laboratory results as given in PubChem BioAssay AID1508600 (Functional Genomics Laboratory (NCATS/FGL), 2020).
Hit rate of the full screen: of about 53,000 sequences, about 3,700 (7%) were called active.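 How the source made its calls: active means gene knockdowns whose robust z-score for IL-1 alpha signal is at least 2 or at most -2, so actives lie on both sides; inactive means the rest.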 The list shows a part of the results.

Test: Components of the Cytosolic LPS Sensing Pathway: Gene Identification via Genome-wide siRNA Screen;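 further: robust z of the log signal after scaling to non-targeting control siRNA wells of the plate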
Conditions: RAW264.7 macrophages, IL-1a HTRF, actives lie on both sides, screened at 100 nM (by protocol), cells primed 5 h with Pam3CSK4 first
Summary of the method: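 Supernatant IL-1a by HTRF from RAW264.7 cells primed with Pam3CSK4 (5 hours) and transfected with LipidA (24 hour) after 48h siRNA knockdown at 100 nM; cell viability checked with CellTiter-Glo.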

| Sequence | z-score |
| --- | --- |
| CGUGGACUCUAUAAUCAACTT against Map7d1 | active: 2.47 |
| GGAAGUAGAGCUUCAAAUGTT against Cdkl2 | active: 2.8 |
| GGAUCGUUAGUCAUUUCUGTT against Olfr1054 | inactive: -0.78 |
| GGCCAUUGAUACCUACUGCTT against Comt | inactive: -1.03 |
| GCAGUUAUUACCAAUAAUGTT against Plcd1 | inactive: 1.16 |
| GCACGUAUGGAAUUCAUGUTT against Daam2 | inactive: 1.23 |
| GGAGGGUGAUCUCAUUGAATT against Prkd1 | inactive: 0.479 |
| GGCUCCAACAGCGACAUGUTT against Glul | inactive: 0.851 |
| GCUAAUAACAGUCCUUUCATT against Rorc | inactive: -1.37 |
| GGAGCUGCGCAACAUUAUCTT against Ada | inactive: -1.11 |
| CCCUCAUCUUUGACGUGGATT against Fkbp1b | inactive: 1.62 |
| GCUCAGUAAUCGCUGUCUATT against Olfr91 | inactive: -0.62 |
| GGACUUAUCACUAUUUGCATT against Dlgap3 | inactive: 0.782 |
| GGUGAAUCGGUUUUCAGAUTT against Iffo2 | inactive: 1.27 |
| CCUCUCAUGAUGUUACCACTT against Rubcnl | inactive: -1.56 |
| GGAUAUCGGAUAUGUAAAUTT against Syk | inactive: 0.252 |
| GCAGGCUAUGCUACGCACATT against Arsb | inactive: -1.66 |
| GGCUUUCUCCAAGCUAUAUTT against Tdgf1 | inactive: -1.83 |
| GGCAAGGUCAAGGACACCATT against Tcp11 | inactive: -0.77 |
| GAAGGAGACAGCACAAGUCTT against H2-M10.2 | inactive: 1.39 |
| GGGUUUAAAGGUUAUGGAGTT against Adam17 | inactive: -0.814 |
| CGGUUCUGGUGCAUUCACATT against Olfr242 | active: -2.06 |

| Sequence | z-score |
| --- | --- |
| GGUAAAUUACUCUGAUCAATT against Gpr61 | inactive: -0.593 |
| GGUUCUCCUUGUUUUGCUGTT against Defb20 | inactive: 1.17 |
| GGGUCUCACUCUCUUCCGATT against Slc23a1 | inactive: -0.329 |
| GGUACCAUCCGGAAUACAATT against Zdhhc19 | active: 3.95 |
| GGAAUAUGAAGCAUAAGUGTT against Tcim | inactive: -0.0103 |
| GCGUAACGCAGCAGCUAAGTT against Tarbp2 | active: -3.01 |
| GCUGGUAUUCAGCACCUUUTT against Cyp17a1 | inactive: 0.357 |
| GGACUUCGACAAACUGAAGTT against Zfp532 | inactive: 0.547 |
| GGAUCUCUUUUUUCACAUGTT against Kcne2 | inactive: 0.605 |
| GCUUUGCACAAAACACUUATT against Zfp345 | inactive: -0.635 |
| GGCAUUUGUAAUAUGGAGATT against Erlin1 | inactive: -0.823 |
| GCCCUAGGACCAAGAACAATT against 9930012K11Rik | inactive: -0.734 |
| GCCUUGGCCUAAGUUAUACTT against Ttll12 | inactive: -0.223 |
| GGCAUUCAUGUUCUUGACUTT against Ptp4a1 | inactive: -1.48 |
| GGAACAAAGUAGGAGCUUGTT against Zfp318 | inactive: 0.369 |
| CGUGGAUGAUACCAAAAUGTT against Igsf21 | inactive: -0.73 |
| CCUUCUGGUAGUGAUUAUCTT against Olfr1535 | inactive: -0.324 |
| GGGAAGUGGCUUUUGAUGUTT against Itih1 | inactive: -0.849 |
| GGAAGAAACCUUUGUCAAGTT against 9130023H24Rik | inactive: -0.398 |
| CGAAUCGAGUGAAGAAAAATT against 4930544G11Rik | inactive: -0.41 |
| GGCAUUUACCAAGUUCCUGTT against Olfr522 | inactive: -1.26 |
| GGUGUUUAAGGAUGAACAATT against L3mbtl3 | inactive: 0.104 |

| Sequence | z-score |
| --- | --- |
| GCCAGUUUACACCAGAGUCTT against Tecta | inactive: 0.305 |
| CUUCUUGGUGGGUCUGACUTT against Taar7e | active: -2.63 |
| GCGGGAAAAUGAGACCAAATT against Bin3 | inactive: 1.95 |
| GGAUAUAAGUUCCAGUUUGTT against Fam166b | inactive: 0.834 |
| CCCGAUUAUCUAGUGAUACTT against Sbk1 | inactive: 0.311 |
| GCAAUUCGAUUGAAGAUCUTT against Aoc3 | inactive: 0.285 |
| GCUAGAGGCUCAAAUACAGTT against Tmem45b | inactive: 0.664 |
| GGUCCCUACAGGGAACAAATT against Trim10 | inactive: 0.197 |
| GACAGUUAACCUUUUAAGATT against Pigyl | inactive: -0.483 |
| GGUUCAAGAGGAGACUACUTT against BC005624 | inactive: -0.127 |
| GGAUGGCUACAUUGACUUCTT against Guca1a | inactive: -1.01 |
| GGAGGUCAAAGUAAACUGGTT against Tial1 | active: 2.2 |
| CGAGAAAUAUAUGAAUGUCTT against Adgrl4 | inactive: -0.871 |
| CCAUUUUUCCUACGUGGGUTT against Zfand2a | inactive: 0.449 |
| GGGAAGUCAAAGAAGAAUGTT against 2010106E10Rik | inactive: 0.0964 |
| GGAUUCUGUGACCCUUGCATT against Bcam | inactive: -0.0454 |
| GGGAACCUUGUCAUGAUGATT against Tbc1d16 | inactive: -0.98 |
| GCCGUUUAUCCUAUGAACUTT against Fign | inactive: 0.744 |
| GCUGUGUGUGAUUGAUUGGTT against Mgme1 | inactive: 0.255 |
| GGCUAACAACUUCUACAUCTT against Wasf3 | inactive: 0.0369 |
| CCCAGGCAUACUACAAGGUTT against Ermn | inactive: 0.32 |
| GGCUUGUAAUCCUAGAUGUTT against Sae1 | inactive: -1.37 |

4 entries from above, with each value named.
GGUUCAAGAGGAGACUACUTT against BC005624
  z-score: inactive: -0.127
GGAUGGCUACAUUGACUUCTT against Guca1a
  z-score: inactive: -1.01
GGAGGUCAAAGUAAACUGGTT against Tial1
  z-score: active: 2.2
CGAGAAAUAUAUGAAUGUCTT against Adgrl4
  z-score: inactive: -0.871

2 records picked at random from the list so far:

| Sequence | z-score |
| --- | --- |
| GCCAGUUUACACCAGAGUCTT against Tecta | inactive: 0.305 |
| CCCGAUUAUCUAGUGAUACTT against Sbk1 | inactive: 0.311 |

The list continues.

| Sequence | z-score |
| --- | --- |
| CCUCAUAUAUCCCUAAUUATT against Camk1g | inactive: -0.982 |
| GGUGCUGUGUAAUCACCGATT against Psmc2 | inactive: -0.903 |
| GUCCAGAUGGCUAAUUCUATT against Rpl23a | inactive: 1.14 |
| GGAAAUUCUACAGAAGUCUTT against Ecscr | inactive: -0.659 |
| GGAAAUGGCACAAGAAGUCTT against Tslp | inactive: 0.259 |
| GUUUAUCCUUAUGGGUUUATT against Olfr456 | inactive: 1.74 |
| GGGCUAUCUUCUGAUUGGCTT against Zp3r | active: -2.45 |
| GAUCCUUUCCUUCUUCCUCTT against Olfr1086 | inactive: -0.745 |
| GGUCCUUGGUAAUCAAAUATT against Zc3h7a | inactive: -0.554 |
| GGAAAAGGGUAAACAAACATT against Car13 | inactive: 0.978 |
| GGGCUGGAAUCUAGGAAGUTT against Ccr10 | active: 2.68 |
| GGAGGUCAGAAGGUGUGUUTT against Rad52 | inactive: -1.43 |
| CCCAAACACCAACCAACUGTT against Unc93a | inactive: 0.507 |
| GGAUGUCAAAUCUGCUGUATT against Olfr229 | inactive: -1.48 |
| GCGUGAUUGACAACUGGUUTT against Cphx1 | inactive: 0.236 |
| GCAAGCCCAUUGAUCAGAGTT against Rhno1 | inactive: -1.77 |
| GCAAGUAUACACCUCUCAATT against Slc6a12 | inactive: 0.884 |
| GGACCUUAAAGAAACAUUUTT against Iws1 | inactive: 1.67 |
| GGUAGUCAUCAGCUACUUCTT against Slc31a1 | inactive: -0.877 |
| GGGAAAAGAAGUUUCAAGUTT against A430072C10Rik | inactive: -0.309 |
| GCACAGCUCUACAUAAUUUTT against Olfr312 | inactive: -0.817 |
| GGGCCUUAAAUUCCUAACCTT against Spinkl | inactive: -0.546 |

| Sequence | z-score |
| --- | --- |
| GCUCUUCUUCUUCUCCUUGTT against Olfr1411 | inactive: -0.86 |
| GGAUAACCACGACAAAAUATT against Ttc7 | inactive: -0.853 |
| GGUUCUGGUAUAAGUUAACTT against Gabrg3 | inactive: 0.292 |
| GCGGGCCAAGGUAGAAUACTT against Kdm1a | inactive: 0.442 |
| GCCAGUGGUAGCGAUAUGATT against Zscan4c | inactive: -0.263 |
| GCCCUCGGAUAGAAUGGAUTT against Ccdc32 | inactive: -1.24 |
| GUGUAAGAUCUGACACUUUTT against Krtap5-2 | inactive: 0.733 |
| GGUCUCCAUUUCUUUCUGCTT against Nmd3 | inactive: -0.952 |
| GGGAGGUUAAAAUUGGCUATT against Sertm1 | inactive: -1 |
| GGACAAUUACUCCAAAAUUTT against Tnfsf10 | inactive: 0.724 |
| GCACUACAAACAGUUCCGATT against Fat4 | inactive: 1.03 |
| GGCUGAGUGGCUCUAUAGUTT against Cep97 | inactive: -1.29 |
| GGUCCACUAAGAAGACAUATT against Fibcd1 | inactive: -0.488 |
| GGUCUUCCGAGAAGGUUAATT against Chst4 | inactive: 1.28 |
| GGAAAUGUCUUGUCACUAATT against Bzw1 | inactive: 0.896 |
| CCAGGAAAUUCGUGCAUGATT against Sgsm2 | inactive: -0.307 |
| GGAAAGAGGAAGAUAAAGUTT against 2310002L09Rik | inactive: -1.17 |
| GCCGAACUGUCAGUACUUCTT against Ccn3 | inactive: 0.0642 |
